Assay: Residual DXSP in steroid-eluting leads removed from subjects (Case Study #2)
Format: in vivo, human and canine

**Q.** Which “release in the first year” value does the source give for C[C@@H]1C[C@H]2[C@@H]3CCC4=CC(=O)C=C[C@]4(C)[C@@]3(F)[C@@H](O)C[C@]2(C)[C@@]1(O)C(=O)COP(=O)(O)O [DSP, dexamethasone sodium phosphate] here?
**A.** 0.6 to 0.7 mg

**Q.** And the average release (first year)?
**A.** 1.6 to 1.9 µg/day
